Screening data

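Luminescence from an EWS-FLI1 target-promoter (NR0B1) reporter, set against a CMV-promoter reporter, two days after silencing single genes in TC32 Ewing sarcoma cells. Each siRNA was applied at 20 nM. A z-score of the log NR0B1-over-CMV signal, less the median of siRNAs with the same seed; more negative means a stronger specific loss of the NR0B1 reporter.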

The strongest results of the screen are mostly left out here. Sequences are the guide (antisense) strand, without overhang.

strand	target gene	seed-corrected z-score
UAUUGAAAACCAUUCAUCA	CTSLP3	-0.7724
UAGCCGAUGUUUCAUAUCU	RGS4	-0.4722
UAUCAAUCAAGGUUGCAUC	STMND1	-0.8955
UUUAGAAAGAACGCAUUGC	SIGLEC11	0.2905
UAUUUUUCGGAUUGCAUCC	OR5D16	-0.05425
UAAGCUAGCAAAUUGUCCC	SLC6A14	-0.08382
UCAGUUCAUACACCUUCCG	ICAM1	1.236
UAAGUAUUCCCAGGGUAAC	PRR27	-0.5439
UCUCUGAUCAGCUUGGGUG	FAR2	0.8497
UUCUUUGCCCUAGAAAUUC	RGS13	-0.232
AUAAAGUUCACAGUGUCCU	TTC30A	-0.2349
UUUGUAGUUGUAGUAAGGG	ZBTB38	0.4116
UAUGAUCCCUCUGCGUUUC	HEYL	0.5998
UUUUCAUUUAAAACUUUGC	TRNP1	0.5394
UCUGUUAUUAUUCUCAAUG	PPP3CA	-0.1998
AUAUUGUCACGCAAUACCU	HIST1H4D	-0.2193
UAUGGGUUUCACAUUAUUU	TYMSOS	-0.96
AUCCCAUCCGCUUUGAUCU	LINC01144	-0.7405
UCUCAUGAAAUAGACCUCC	CFHR3	0.3135
AGAAGUAAAAGCUAUAGAG	CNGA4	0.5166
UCAUUGGAAAGGUGCAGGG	TMEM94	0.5582
UCCUGUUCUAGGUCUGUUG	KRT23	-0.4493
UUUCUGGAAUGUACGAUGG	LRRC37A3	-0.03858
UUUUAUUAGGGAGGACAGC	C21orf2	0.8328
AUACUUUUCCAUAGGAUCC	LINC00992	-0.7258
UCUGGGAAUAAGCCCUUGU	WDR73	-0.3419
AAAAUGACAGUUGCCUUCC	ZNF461	0.07607
UCUGCCUGAAGAUACUUCC	MS4A2	-0.8341
UCCCUUAUCCUUGUUCAAG	FAM90A20P	-0.3903
UAAGCAAGAAAAGAUACUC	MICU2	0.3521
UAUCCUCGAAUCCAAGUCC	COL15A1	-0.1874
UGUCCAAUCACUAUAAGGG	AAED1	0.1112
UCUGAUUGCAGAUCUUUGU	UCA1	-0.1247
AAAUCUGUCAGCGUAAUUC	SYDE2	-0.04028
AUAGUGGUUACAGAGGUAG	ZNF804A	-1.301
ACUUCGUUCAGGAAAAUUG	FBXL13	0.3192
UCAGAUUUUUGCACCAAGG	MSMP	0.5009
UUCUCGAUGAGCCGUGUAC	RARRES1	-0.9072
UUUGUUAAGCUGAACAUUC	VPS37B	0.5209
UAUCUUGCAGGAGCAGCAG	ERICH1	0.553
UUGUCUACUGGGUCUGUCC	CALHM2	0.9697
UACAGUGUUAGGCUCAUAG	RALBP1	1.076
AUCUUGAUGACCAGCAGCG	PTGES	-0.1372
UCUCUUUCCUCAGUCUGUC	CFAP157	0.9471
UCUCAUCCCAUUCAAAUGC	SNX27	-0.4568
AGUAAUUAUAGGAUAAGUC	TLR2	-0.174
AAUUCAUCUCAUCUAAUUG	SULT1E1	-1.11
UUUUGAGGCACCACCGUCU	ZNF496	0.378
UGUUUAGAUAGCACGAUCC	TTLL5	-0.3746
UGUUCUGUAAUGUUCGGCC	PYGL	0.2724
UUACCUUUCUUGUUAAUAG	GOLPH3	0.05971
UAGAGAUUCAUUCCGGUAG	PIK3R1	-0.279
UAGACUGUCACCGAAAUUC	FBXO5	-0.5929
AGUGUUUUCAGCUUAUCCG	AHSA1	0.07375
AUCGUAACACUGAACUUUG	ENC1	0.1223
UCUUCUUCAAAGUAGAGAG	SETD3	0.7321
UCUUGAGUGAGUAAGAGCC	ANGPTL2	-0.4883
UUGCAUUAGAGGGAAACCG	RBM20	0.8421
AUAGAUGCAAAAGUGACUG	IBTK	0.07363
ACAGCUACAGCAGACACUC	ATF4P3	0.7637
AUCUCUGAAAGUUAAACCC	VN2R1P	0.3403
UGUGCGGUUGGAUUGAUCG	MEIS3	-0.1347
UGACUUUAAGAGGACAGCC	CMPK2	-1.238
UCACGUAUCAAAGAAGUCA	CCDC88A	0.6694
UUUUGGGUAUCCUCUAGGC	NPVF	-0.2214
UGUCUGCACAGAAUGAGAG	OR1F1	0.8121
UCACGUUGCAGGUGUAGCC	GRN	-0.03112
UGAGAGUCCAUAAAAACUC	GRIK4	0.225

The last 7 entries again:

strand	target gene	seed-corrected z-score
UGUGCGGUUGGAUUGAUCG	MEIS3	-0.1347
UGACUUUAAGAGGACAGCC	CMPK2	-1.238
UCACGUAUCAAAGAAGUCA	CCDC88A	0.6694
UUUUGGGUAUCCUCUAGGC	NPVF	-0.2214
UGUCUGCACAGAAUGAGAG	OR1F1	0.8121
UCACGUUGCAGGUGUAGCC	GRN	-0.03112
UGAGAGUCCAUAAAAACUC	GRIK4	0.225

From PubChem BioAssay record AID1159506 (NCATS, 2015).